{"sequences": {"note": "By UniProt entry, the sequences of proteins in these tests, tags left out.", "UniProt Q64511": "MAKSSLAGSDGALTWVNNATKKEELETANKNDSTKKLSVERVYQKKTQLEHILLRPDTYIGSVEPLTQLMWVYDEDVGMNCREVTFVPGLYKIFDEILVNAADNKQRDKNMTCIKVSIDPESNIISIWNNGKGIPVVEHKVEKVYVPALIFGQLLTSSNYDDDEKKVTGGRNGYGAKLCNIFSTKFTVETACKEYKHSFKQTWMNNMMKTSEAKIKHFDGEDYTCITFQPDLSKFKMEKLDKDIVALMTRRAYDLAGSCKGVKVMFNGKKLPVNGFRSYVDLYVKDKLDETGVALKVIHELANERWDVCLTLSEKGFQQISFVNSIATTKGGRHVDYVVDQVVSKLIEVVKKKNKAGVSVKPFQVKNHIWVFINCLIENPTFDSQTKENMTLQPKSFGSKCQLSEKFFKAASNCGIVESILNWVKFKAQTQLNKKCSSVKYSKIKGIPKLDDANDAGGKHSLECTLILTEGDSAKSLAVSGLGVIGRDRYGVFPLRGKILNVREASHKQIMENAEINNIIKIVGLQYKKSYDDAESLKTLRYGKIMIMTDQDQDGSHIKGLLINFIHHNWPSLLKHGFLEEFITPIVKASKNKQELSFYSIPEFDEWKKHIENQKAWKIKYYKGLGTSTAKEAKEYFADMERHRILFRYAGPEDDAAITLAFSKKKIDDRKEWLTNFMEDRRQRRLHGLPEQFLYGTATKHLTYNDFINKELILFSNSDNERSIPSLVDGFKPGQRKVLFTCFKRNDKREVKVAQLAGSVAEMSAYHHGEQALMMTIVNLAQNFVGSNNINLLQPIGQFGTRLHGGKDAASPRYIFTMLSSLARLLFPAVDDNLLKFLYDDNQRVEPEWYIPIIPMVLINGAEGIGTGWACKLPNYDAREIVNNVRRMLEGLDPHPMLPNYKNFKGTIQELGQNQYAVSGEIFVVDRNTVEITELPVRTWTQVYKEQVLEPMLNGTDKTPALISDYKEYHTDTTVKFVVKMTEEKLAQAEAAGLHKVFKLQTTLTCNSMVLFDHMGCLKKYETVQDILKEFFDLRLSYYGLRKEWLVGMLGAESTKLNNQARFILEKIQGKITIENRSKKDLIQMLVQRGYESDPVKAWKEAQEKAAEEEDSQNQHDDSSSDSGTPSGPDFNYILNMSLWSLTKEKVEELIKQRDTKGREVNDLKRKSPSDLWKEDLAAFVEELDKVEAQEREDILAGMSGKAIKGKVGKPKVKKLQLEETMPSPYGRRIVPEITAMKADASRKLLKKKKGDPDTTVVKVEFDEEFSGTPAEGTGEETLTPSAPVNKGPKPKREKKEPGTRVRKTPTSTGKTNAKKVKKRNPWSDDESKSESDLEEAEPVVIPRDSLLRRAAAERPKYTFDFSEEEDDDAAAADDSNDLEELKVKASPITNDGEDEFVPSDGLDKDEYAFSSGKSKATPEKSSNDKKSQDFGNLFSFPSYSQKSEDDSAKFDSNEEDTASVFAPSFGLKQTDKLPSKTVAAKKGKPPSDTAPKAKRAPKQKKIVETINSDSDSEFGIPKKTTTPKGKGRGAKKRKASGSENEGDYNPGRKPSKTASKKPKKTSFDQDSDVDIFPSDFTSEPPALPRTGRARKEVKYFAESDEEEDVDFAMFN"}, "source": "paper doi:10.1101/2020.01.03.892703", "key": {"[1]": {"target": "Topoisomerase IIβ (mouse (endogenous in MEFs)) (UniProt Q64511)", "test": "co-IP"}, "[2]": {"target": "T1, biotin-tagged XPF (mouse (endogenous knock-in in MEFs)) (UniProt Q9QZD4)", "T1 sequence (chain, biotin on the 15 aa tag (by the BirA ligase in vivo))": "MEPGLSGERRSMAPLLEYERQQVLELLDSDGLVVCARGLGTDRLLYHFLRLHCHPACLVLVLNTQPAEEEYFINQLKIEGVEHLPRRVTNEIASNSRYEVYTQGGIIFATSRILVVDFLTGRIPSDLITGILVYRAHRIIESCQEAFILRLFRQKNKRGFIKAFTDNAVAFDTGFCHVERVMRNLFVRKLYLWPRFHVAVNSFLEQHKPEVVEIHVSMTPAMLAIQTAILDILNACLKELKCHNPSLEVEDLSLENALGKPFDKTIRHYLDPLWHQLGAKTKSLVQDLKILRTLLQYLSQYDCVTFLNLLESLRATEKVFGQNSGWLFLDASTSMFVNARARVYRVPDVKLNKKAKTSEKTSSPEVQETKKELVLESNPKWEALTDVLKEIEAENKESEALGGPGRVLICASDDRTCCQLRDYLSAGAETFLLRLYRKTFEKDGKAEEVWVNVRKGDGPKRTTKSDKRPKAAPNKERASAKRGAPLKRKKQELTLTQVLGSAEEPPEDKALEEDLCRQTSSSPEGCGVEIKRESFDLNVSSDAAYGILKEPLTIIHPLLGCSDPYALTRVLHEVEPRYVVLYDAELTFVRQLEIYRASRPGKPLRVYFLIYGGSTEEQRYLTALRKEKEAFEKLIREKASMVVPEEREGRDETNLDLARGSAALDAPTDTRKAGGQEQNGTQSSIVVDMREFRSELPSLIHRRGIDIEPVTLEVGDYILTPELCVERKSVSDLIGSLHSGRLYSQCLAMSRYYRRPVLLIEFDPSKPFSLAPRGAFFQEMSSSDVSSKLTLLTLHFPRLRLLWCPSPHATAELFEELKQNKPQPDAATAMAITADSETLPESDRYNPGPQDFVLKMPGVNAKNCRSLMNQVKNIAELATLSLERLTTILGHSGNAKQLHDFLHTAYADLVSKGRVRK", "test": "pull-down"}, "[3]": {"target": "T2, ERCC1 (mouse (endogenous in MEFs)) (UniProt P07903)", "T2 sequence": "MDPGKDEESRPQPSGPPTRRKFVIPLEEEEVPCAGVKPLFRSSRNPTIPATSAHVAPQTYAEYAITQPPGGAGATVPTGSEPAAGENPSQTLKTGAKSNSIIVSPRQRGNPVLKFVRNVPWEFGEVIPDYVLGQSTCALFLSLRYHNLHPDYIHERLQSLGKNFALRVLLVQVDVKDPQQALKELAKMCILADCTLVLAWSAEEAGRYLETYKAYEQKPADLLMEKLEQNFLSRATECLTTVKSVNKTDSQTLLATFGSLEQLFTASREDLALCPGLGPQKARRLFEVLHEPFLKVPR", "test": "co-IP"}}, "note": "These are yes or no findings as the source states them, for the method shown. In cells and extracts the contact can be indirect. Some results given as binding are weak or reduced against the parent protein; the word gives no strength. For part of these data: Tags and fused reporters may be left off the sequences shown."}
{"binder": "ERCC1 (protein, UniProt P07903 1-298) MDPGKDEESRPQPSGPPTRRKFVIPLEEEEVPCAGVKPLFRSSRNPTIPATSAHVAPQTYAEYAITQPPGGAGATVPTGSEPAAGENPSQTLKTGAKSNSIIVSPRQRGNPVLKFVRNVPWEFGEVIPDYVLGQSTCALFLSLRYHNLHPDYIHERLQSLGKNFALRVLLVQVDVKDPQQALKELAKMCILADCTLVLAWSAEEAGRYLETYKAYEQKPADLLMEKLEQNFLSRATECLTTVKSVNKTDSQTLLATFGSLEQLFTASREDLALCPGLGPQKARRLFEVLHEPFLKVPR", "values": [{"measurement": "binding", "setting": "[1]", "value": "binds"}, {"measurement": "binding", "setting": "[2]", "value": "binds"}]}
{"binder": "CCCTC-binding factor (protein, UniProt Q61164 1-736) MEGEAVEAIVEESETFIKGKERKTYQRRREGGQEEDACHLPQNQTDGGEVVQDVNSSVQMVMMEQLDPTLLQMKTEVMEGTVAPEAEAAVDDTQIITLQVVNMEEQPINIGELQLVQVPVPVTVPVATTSVEELQGAYENEVSKEGLAESEPMICHTLPLPEGFQVVKVGANGEVETLEQGELPPQEDSSWQKDPDYQPPAKKTKKTKKSKLRYTEEGKDVDVSVYDFEEEQQEGLLSEVNAEKVVGNMKPPKPTKIKKKGVKKTFQCELCSYTCPRRSNLDRHMKSHTDERPHKCHLCGRAFRTVTLLRNHLNTHTGTRPHKCPDCDMAFVTSGELVRHRRYKHTHEKPFKCSMCDYASVEVSKLKRHIRSHTGERPFQCSLCSYASRDTYKLKRHMRTHSGEKPYECYICHARFTQSGTMKMHILQKHTENVAKFHCPHCDTVIARKSDLGVHLRKQHSYIEQGKKCRYCDAVFHERYALIQHQKSHKNEKRFKCDQCDYACRQERHMIMHKRTHTGEKPYACSHCDKTFRQKQLLDMHFKRYHDPNFVPAAFVCSKCGKTFTRRNTMARHADNCAGPDGVEGENGGETKKSKRGRKRKMRSKKEDSSDSEENAEPDLDDNEEEEEPAVEIEPEPEPQPQPPPPPQPVAPAPPPAKKRRGRPPGRTNQPKQNQPTAIIQVEDQNTGAIENIIVEVKKEPDAEPAEGEEEEAQAATTDAPNGDLTPEMILSMMDR", "values": [{"measurement": "binding", "setting": "[1]", "value": "binds"}, {"measurement": "binding", "setting": "[3]", "value": "binds"}, {"measurement": "binding", "setting": "[2]", "value": "binds"}]}
{"binder": "SMC1A (protein, UniProt Q9CU62 1-1233) MGFLKLIEIENFKSYKGRQIIGPFQRFTAIIGPNGSGKSNLMDAISFVLGEKTSNLRVKTLRDLIHGAPVGKPAANRAFVSMVYSEEGAEDRTFARVIVGGSSEYKINNKVVQLHEYSEELEKLGILIKARNFLVFQGAVESIAMKNPKERTALFEEISRSGELAQEYDKRKKEMVKAEEDTQFNYHRKKNIAAERKEAKQEKEEADRYQRLKDEVVRAQVQLQLFKLYHNEVEIEKLNKELASKNKEIEKDKKRMDKVEDELKEKKKELGKMMREQQQIEKEIKEKDSELNQKRPQYIKAKENTSHKIKKLEAAKKSLQNAQKHYKKRKGDMDELEKEMLSVEKARQEFEERMEEESQSQGRDLTLEENQVKKYHRLKEEASKRAATLAQELEKFNRDQKADQDRLDLEERKKVETEAKIKQKLREIEENQKRIEKLEEYITTSKQSLEEQKKLEGELTEEVEMAKRRIDEINKELNQVMEQLGDARIDRQESSRQQRKAEIMESIKRLYPGSVYGRLIDLCQPTQKKYQIAVTKVLGKNMDAIIVDSEKTGRDCIQYIKEQRGEPETFLPLDYLEVKPTDEKLRELKGAKLVIDVIRYEPPHIKKALQYACGNALVCDNVEDARRIAFGGHQRHKTVALDGTLFQKSGVISGGASDLKAKARRWDEKAVDKLKEKKERLTEELKEQMKAKRKEAELRQVQSQAHGLQMRLKYSQSDLEQTKTRHLALNLQEKSKLESELANFGPRINDIKRIIQSREREMKDLKEKMNQVEDEVFEEFCREIGVRNIREFEEEKVKRQNEIAKKRLEFENQKTRLGIQLDFEKNQLKEDQDKVHMWEQTVKKDENEIEKLKKEEQRHMKIIDETMAQLQDLKNQHLAKKSEVNDKNHEMEEIRKKLGGANKEMTHLQKEVTAIETKLEQKRSDRHNLLQACKMQDIKLPLSKGTMDDISQEEGSSQGEESVSGSQRTSSIYAREALIEIDYGDLCEDLKDAQAEEEIKQEMNTLQQKLNEQQSVLQRIAAPNMKAMEKLESVRDKFQETSDEFEAARKRAKKAKQAFEQIKKERFDRFNACFESVATNIDEIYKALSRNSSAQAFLGPENPEEPYLDGINYNCVAPGKRFRPMDNLSGGEKTVAALALLFAIHSYKPAPFFVLDEIDAALDNTNIGKVANYIKEQSTCNFQAIVISLKEEFYTKAESLIGVYPEQGDCVISKVLTFDLTKYPDANPNPNEQ", "values": [{"measurement": "binding", "setting": "[1]", "value": "binds"}, {"measurement": "binding", "setting": "[3]", "value": "binds"}, {"measurement": "binding", "setting": "[2]", "value": "binds"}]}
{"binder": "TBP (protein, UniProt P29037 1-316) MDQNNSLPPYAQGLASPQGAMTPGIPIFSPMMPYGTGLTPQPIQNTNSLSILEEQQRQQQQQQQQQQQQQAVATAAASVQQSTSQQPTQGASGQTPQLFHSQTLTTAPLPGTTPLYPSPMTPMTPITPATPASESSGIVPQLQNIVSTVNLGCKLDLKTIALRARNAEYNPKRFAAVIMRIREPRTTALIFSSGKMVCTGAKSEEQSRLAARKYARVVQKLGFPAKFLDFKIQNMVGSCDVKFPIRLEGLVLTHQQFSSYEPELFPGLIYRMIKPRIVLLIFVSGKVVLTGAKVRAEIYEAFENIYPILKGFRKTT", "values": [{"measurement": "binding", "setting": "[2]", "value": "binds"}]}
